Source: PubChem BioAssay AID602196 (INSERM, 2012)
Aim: 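Genes whose knock-down alters cisplatin killing of lung cancer cells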. Cell system: human A549 lung cancer cells. Knock-down reagent: siRNA pair against human genes. Time to read-out: 48 h transfection before cisplatin; time from cisplatin to read-out not stated. Challenge: cisplatin at a dose killing half of control-siRNA cells; exact dose and duration not given. Detection: 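Shift in cisplatin death relative to control siRNA, from -50 (all cells die) to +50 (no cells die); siRNAs harmful on their own scored 0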. Scale: two-siRNA summed score (-2 to +2): higher = both siRNAs protect from cisplatin killing; -2 means both sensitise. Hit rule: 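siRNAs harmful alone (LDH or WST-1) get 0; others get +1 for less and -1 for more cisplatin killing; genes are active when the two siRNAs give the same sign, summing to ±2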. Calls: active = both siRNAs shift cisplatin killing the same way; inactive = no consistent shift, or siRNA harmful alone.
The deposit covers about 23,000 reagents; below is a part drawn at random. 455 of them (2%) count as active. 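Active includes both protection and sensitisation; some change values fall well beyond the stated -50 to +50 range.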 Not all columns of the deposit are shown. Not stated in the record: the amount of reagent.

After knock-down of GINM1, the record shows two-siRNA summed score (-2 to +2) = -1; inactive. For TMEM139, the values are two-siRNA summed score (-2 to +2) = 1; inactive. LOC400605 scored two-siRNA summed score (-2 to +2) = 0; inactive. Depletion of SV2A gave: two-siRNA summed score (-2 to +2) = 0; inactive. Knock-down of ADGRB1 resulted in: two-siRNA summed score (-2 to +2) = 0; inactive. After knock-down of CDK5R2, the record shows two-siRNA summed score (-2 to +2) = 1; inactive.

For MYO1E, the entry reads two-siRNA summed score (-2 to +2) = 0; inactive. TNNT2 showed two-siRNA summed score (-2 to +2) = -1; inactive. With knock-down of SPATA21 the results were two-siRNA summed score (-2 to +2) = 0; inactive. CYB5R1 scored two-siRNA summed score (-2 to +2) = -1; inactive. LOC392159 showed two-siRNA summed score (-2 to +2) = 0; inactive. Silencing of TMEM115 gave: two-siRNA summed score (-2 to +2) = 0; inactive.

Silencing of CFD came out at: two-siRNA summed score (-2 to +2) = 1; inactive. With knock-down of CFAP52, the screen gave two-siRNA summed score (-2 to +2) = 0; inactive. After knock-down of SGCD, the screen gave two-siRNA summed score (-2 to +2) = -1; inactive. For MS4A5, the values are two-siRNA summed score (-2 to +2) = 1; inactive. Silencing of TENT4B resulted in: two-siRNA summed score (-2 to +2) = 0; inactive. Silencing of DSCR10 gave: two-siRNA summed score (-2 to +2) = 0; inactive.

Against LOC343531 the deposit lists two-siRNA summed score (-2 to +2) = 1; inactive. With knock-down of S100A7 the results were two-siRNA summed score (-2 to +2) = 0; inactive. Against RALGDS the deposit lists two-siRNA summed score (-2 to +2) = -1; inactive. GZMK gave two-siRNA summed score (-2 to +2) = -1; inactive. MLF1 scored two-siRNA summed score (-2 to +2) = 0; inactive. Knock-down of PABPC1 resulted in: two-siRNA summed score (-2 to +2) = -1; inactive.

Against ALG1, the entry reads two-siRNA summed score (-2 to +2) = 0; inactive. With knock-down of LOC391809, the record shows two-siRNA summed score (-2 to +2) = 0; inactive. After knock-down of LOC347544, the record shows two-siRNA summed score (-2 to +2) = 0; inactive. Against SNX27, the values are two-siRNA summed score (-2 to +2) = 0; inactive. CIB2 gave two-siRNA summed score (-2 to +2) = 1; inactive. LOC441311 gave two-siRNA summed score (-2 to +2) = 0; inactive.

For IGFBP6, the entry reads two-siRNA summed score (-2 to +2) = 0; inactive.

4 entries from above, sorted by “two-siRNA summed score (-2 to +2)”, highest first.
LOC343531 | two-siRNA summed score (-2 to +2): 1; Call: inactive
TENT4B | two-siRNA summed score (-2 to +2): 0; Call: inactive
DSCR10 | two-siRNA summed score (-2 to +2): 0; Call: inactive
S100A7 | two-siRNA summed score (-2 to +2): 0; Call: inactive
